Source: publication PMC4413608
No constants are given. Whether binding was seen depends on the method and setting. In cells and extracts the contact can be indirect. Some results given as binding are weak or reduced against the parent protein; the word gives no strength.

The chains behind the UniProt entries cited, without tags or fusion partners. Residues count along the entry.
UniProt P30101, residues 25-505: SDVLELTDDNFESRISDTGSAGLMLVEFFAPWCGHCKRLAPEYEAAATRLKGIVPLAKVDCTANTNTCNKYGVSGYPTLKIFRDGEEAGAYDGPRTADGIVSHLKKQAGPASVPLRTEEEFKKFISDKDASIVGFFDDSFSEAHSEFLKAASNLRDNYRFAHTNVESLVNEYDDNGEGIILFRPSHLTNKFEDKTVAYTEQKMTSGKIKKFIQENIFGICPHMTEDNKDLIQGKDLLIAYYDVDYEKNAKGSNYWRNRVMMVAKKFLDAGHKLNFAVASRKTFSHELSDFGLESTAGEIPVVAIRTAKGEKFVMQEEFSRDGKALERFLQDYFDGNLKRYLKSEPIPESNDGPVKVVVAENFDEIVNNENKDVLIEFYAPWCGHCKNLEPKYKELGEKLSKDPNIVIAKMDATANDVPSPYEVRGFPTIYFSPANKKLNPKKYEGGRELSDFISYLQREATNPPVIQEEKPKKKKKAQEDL
UniProt P40763: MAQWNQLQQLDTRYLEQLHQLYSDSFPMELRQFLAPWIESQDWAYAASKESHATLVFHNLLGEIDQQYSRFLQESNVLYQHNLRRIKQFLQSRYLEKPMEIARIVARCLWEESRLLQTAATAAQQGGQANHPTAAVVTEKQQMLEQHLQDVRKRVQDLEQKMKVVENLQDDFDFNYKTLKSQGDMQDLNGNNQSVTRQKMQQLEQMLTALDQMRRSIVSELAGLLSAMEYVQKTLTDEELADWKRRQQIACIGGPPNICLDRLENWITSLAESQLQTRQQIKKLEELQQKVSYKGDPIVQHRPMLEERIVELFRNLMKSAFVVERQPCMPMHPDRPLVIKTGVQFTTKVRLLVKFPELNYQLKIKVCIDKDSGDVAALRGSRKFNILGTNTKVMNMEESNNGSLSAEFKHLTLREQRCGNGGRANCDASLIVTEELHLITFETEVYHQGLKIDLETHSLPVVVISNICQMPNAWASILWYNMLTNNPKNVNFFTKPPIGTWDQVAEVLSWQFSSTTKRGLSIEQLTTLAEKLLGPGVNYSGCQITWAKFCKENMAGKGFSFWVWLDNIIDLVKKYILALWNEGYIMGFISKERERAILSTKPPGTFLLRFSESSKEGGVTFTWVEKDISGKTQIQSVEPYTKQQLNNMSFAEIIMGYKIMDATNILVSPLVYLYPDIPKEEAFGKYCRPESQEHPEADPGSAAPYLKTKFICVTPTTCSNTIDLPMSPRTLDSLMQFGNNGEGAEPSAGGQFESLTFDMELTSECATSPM

How the values were obtained:
[1] = target: ERp57 (human (endogenous in HEp-2)) (UniProt P30101); assay: proximity ligation; in situ PLA (Duolink) on paraformaldehyde-fixed, permeabilised HEp-2 and RR-HEp-2 cells, untreated or 6 Gy radiation for 12 h; anti-ERp57 and anti-STAT3 antibodies; confocal microscopy, dots per cell counted with CellProfiler
[2] = target: ERp57 (human (endogenous in HEp-2)) (UniProt P30101); assay: proximity ligation; in situ PLA (Duolink) on antigen-retrieved human laryngeal cancer tissue sections (n = 106); anti-ERp57 and anti-STAT3 antibodies; confocal microscopy
[3] = target: ERp57 (human (endogenous in HEp-2)) (UniProt P30101); assay: co-IP; NP-40 lysates of HEp-2 and RR-HEp-2 cells, untreated or 6 Gy radiation for 12 h; precipitated with anti-ERp57 or anti-STAT3 antibody (control IgG), protein G-Sepharose, immunoblot for the other protein

Measured: binding

Signal transducer and activator of transcription 3 (STAT3) (from UniProt P40763 1-770)
binds: [1] | [2] | [3]
